The target in one experiment is Flag-Halo-Parkin (UniProt O60260). As to the kind of experiment: proximity labelling.
The target in another experiment is Flag-Halo-Parkin, O60260. As to the kind of experiment: proximity labelling. The settings on record: remark: other sources report otherwise.

Chains of the proteins cited; added tags and fusions are not shown. Residues count along the entry.
UniProt O60260: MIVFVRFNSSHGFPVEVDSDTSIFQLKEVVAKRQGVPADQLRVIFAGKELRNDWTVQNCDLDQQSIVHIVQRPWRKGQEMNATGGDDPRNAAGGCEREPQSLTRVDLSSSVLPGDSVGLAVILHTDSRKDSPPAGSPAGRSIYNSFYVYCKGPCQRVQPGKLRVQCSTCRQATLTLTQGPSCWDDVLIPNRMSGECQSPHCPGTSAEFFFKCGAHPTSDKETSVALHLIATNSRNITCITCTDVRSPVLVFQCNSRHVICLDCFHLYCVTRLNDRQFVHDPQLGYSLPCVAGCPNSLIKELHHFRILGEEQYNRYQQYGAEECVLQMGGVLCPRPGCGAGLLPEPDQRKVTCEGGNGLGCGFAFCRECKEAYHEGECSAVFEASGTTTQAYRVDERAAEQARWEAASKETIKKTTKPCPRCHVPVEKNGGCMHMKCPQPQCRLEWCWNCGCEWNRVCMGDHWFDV
UniProt Q9NWU1, residues 28-459: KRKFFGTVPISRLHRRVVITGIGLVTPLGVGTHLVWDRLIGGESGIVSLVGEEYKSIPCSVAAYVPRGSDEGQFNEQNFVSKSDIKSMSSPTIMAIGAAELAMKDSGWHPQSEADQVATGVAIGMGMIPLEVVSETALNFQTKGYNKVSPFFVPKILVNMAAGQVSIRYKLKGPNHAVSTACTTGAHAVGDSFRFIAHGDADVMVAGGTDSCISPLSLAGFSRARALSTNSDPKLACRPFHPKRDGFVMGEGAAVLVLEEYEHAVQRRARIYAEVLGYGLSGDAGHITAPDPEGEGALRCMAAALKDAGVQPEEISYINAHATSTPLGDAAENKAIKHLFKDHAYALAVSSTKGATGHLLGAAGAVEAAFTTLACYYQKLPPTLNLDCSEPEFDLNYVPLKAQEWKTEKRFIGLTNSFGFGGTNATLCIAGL
UniProt P14618: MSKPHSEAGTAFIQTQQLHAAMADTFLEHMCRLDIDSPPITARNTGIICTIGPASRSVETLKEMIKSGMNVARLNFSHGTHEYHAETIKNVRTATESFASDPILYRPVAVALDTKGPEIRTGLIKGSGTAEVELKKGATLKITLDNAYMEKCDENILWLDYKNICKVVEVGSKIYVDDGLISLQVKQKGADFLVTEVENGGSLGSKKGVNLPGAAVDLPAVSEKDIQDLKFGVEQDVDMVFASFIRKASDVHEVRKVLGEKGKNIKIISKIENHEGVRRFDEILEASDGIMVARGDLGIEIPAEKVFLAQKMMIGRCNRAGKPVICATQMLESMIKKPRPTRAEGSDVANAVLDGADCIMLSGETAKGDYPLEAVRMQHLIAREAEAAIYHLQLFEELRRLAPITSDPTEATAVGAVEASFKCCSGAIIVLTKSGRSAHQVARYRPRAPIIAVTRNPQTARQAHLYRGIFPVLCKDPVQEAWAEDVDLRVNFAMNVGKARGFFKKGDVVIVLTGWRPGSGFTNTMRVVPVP
UniProt P54725: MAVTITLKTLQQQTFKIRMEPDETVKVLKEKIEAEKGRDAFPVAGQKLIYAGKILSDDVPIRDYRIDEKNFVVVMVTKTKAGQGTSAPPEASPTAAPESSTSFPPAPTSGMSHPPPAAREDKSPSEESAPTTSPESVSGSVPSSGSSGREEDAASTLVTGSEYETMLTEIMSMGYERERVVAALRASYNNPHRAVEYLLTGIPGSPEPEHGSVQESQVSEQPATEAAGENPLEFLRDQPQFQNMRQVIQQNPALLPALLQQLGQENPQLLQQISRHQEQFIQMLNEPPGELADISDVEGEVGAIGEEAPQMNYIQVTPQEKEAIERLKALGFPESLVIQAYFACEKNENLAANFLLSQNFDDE

No constants are given. Whether binding was seen depends on the method and setting. Binding seen in cells or lysates may run through a third protein. These calls come from enrichment with a bait or labelling near it, and not all partners need be listed.

Here are results for 10 molecules from publication doi:10.1101/2024.12.19.627432.

For the molecule “ATP5F1B (from UniProt P06576 48-529) (enzyme)”, the binding entry with Flag-Halo-Parkin is “binds”.

Take “OXSM (from UniProt Q9NWU1 28-459) (enzyme)”: the binding result with Flag-Halo-Parkin is “binds”.

Turning to “PKM (from UniProt P14618 1-531) (enzyme)”, the binding entry with Flag-Halo-Parkin is “binds”.

Turning to RAD23A (from UniProt P54725 1-363), the binding result with Flag-Halo-Parkin is “binds”.

For the molecule “VCP (from UniProt P55072 1-806) (enzyme)”, the binding entry in the experiment with Flag-Halo-Parkin is given as “binds”.

B1: TBC1D15 (protein, UniProt Q8TC07 1-691)
chain: MAAAGVVSGKIIYEQEGVYIHSSCGKTNDQDGLISGILRVLEKDAEVIVDWRPLDDALDSSSILYARKDSSSVVEWTQAPKERGHRGSEHLNSYEAEWDMVNTVSFKRKPHTNGDAPSHRNGKSKWSFLFSLTDLKSIKQNKEGMGWSYLVFCLKDDVVLPALHFHQGDSKLLIESLEKYVVLCESPQDKRTLLVNCQNKSLSQSFENLLDEPAYGLIQAGLLDRRKLLWAIHHWKKIKKDPYTATMIGFSKVTNYIFDSLRGSDPSTHQRPPSEMADFLSDAIPGLKINQQEEPGFEVITRIDLGERPVVQRREPVSLEEWTKNIDSEGRILNVDNMKQMIFRGGLSHALRKQAWKFLLGYFPWDSTKEERTQLQKQKTDEYFRMKLQWKSISQEQEKRNSRLRDYRSLIEKDVNRTDRTNKFYEGQDNPGLILLHDILMTYCMYDFDLGYVQGMSDLLSPLLYVMENEVDAFWCFASYMDQMHQNFEEQMQGMKTQLIQLSTLLRLLDSGFCSYLESQDSGYLYFCFRWLLIRFKREFSFLDILRLWEVMWTELPCTNFHLLLCCAILESEKQQIMEKHYGFNEILKHINELSMKIDVEDILCKAEAISLQMVKCKELPQAVCEILGLQGSEVTTPDSDVGEDENVVMTPCPTSAFQSNALPTLSASGARNDSPTQIPVSSDVCRLTPA
For B1, the binding entry in the experiment with Flag-Halo-Parkin was “binds”.

B2: PARK7, Q99497 1-189 (protein)
chain: MASKRALVILAKGAEEMETVIPVDVMRRAGIKVTVAGLAGKDPVQCSRDVVICPDASLEDAKKEGPYDVVVLPGGNLGAQNLSESAAVKEILKEQENRKGLIAAICAGPTALLAHEIGFGSKVTTHPLAKDKMMNGGHYTYSENRVEKDGLILTSRGPGTSFEFALAIVEALNGKEVAAQVKAPLVLKD
modifications: here or on the partner: SiR-CA bound covalently to the Halo tag
For B2, the binding entry in the experiment with Flag-Halo-Parkin, O60260 is given as “binds”.

B3: BDH1 (enzyme, UniProt Q02338 47-343)
chain: ASAAEPVGSKAVLVTGCDSGFGFSLAKHLHSKGFLVFAGCLMKDKGHDGVKELDSLNSDRLRTVQLNVCSSEEVEKVVEIVRSSLKDPEKGMWGLVNNAGISTFGEVEFTSLETYKQVAEVNLWGTVRMTKSFLPLIRRAKGRVVNISSMLGRMANPARSPYCITKFGVEAFSDCLRYEMYPLGVKVSVVEPGNFIAATSLYSPESIQAIAKKMWEELPEVVRKDYGKKYFDEKIAKMETYCSSGSTDTSPVIDAVTHALTATTPYTRYHPMDYYWWLRMQIMTHLPGAISDMIYIR
Turning to B3, the binding entry with Flag-Halo-Parkin is “binds”.

B4: RIPK1, Q13546 1-671 (enzyme)
chain: MQPDMSLNVIKMKSSDFLESAELDSGGFGKVSLCFHRTQGLMIMKTVYKGPNCIEHNEALLEEAKMMNRLRHSRVVKLLGVIIEEGKYSLVMEYMEKGNLMHVLKAEMSTPLSVKGRIILEIIEGMCYLHGKGVIHKDLKPENILVDNDFHIKIADLGLASFKMWSKLNNEEHNELREVDGTAKKNGGTLYYMAPEHLNDVNAKPTEKSDVYSFAVVLWAIFANKEPYENAICEQQLIMCIKSGNRPDVDDITEYCPREIISLMKLCWEANPEARPTFPGIEEKFRPFYLSQLEESVEEDVKSLKKEYSNENAVVKRMQSLQLDCVAVPSSRSNSATEQPGSLHSSQGLGMGPVEESWFAPSLEHPQEENEPSLQSKLQDEANYHLYGSRMDRQTKQQPRQNVAYNREEERRRRVSHDPFAQQRPYENFQNTEGKGTAYSSAASHGNAVHQPSGLTSQPQVLYQNNGLYSSHGFGTRPLDPGTAGPRVWYRPIPSHMPSLHNIPVPETNYLGNTPTMPFSSLPPTDESIKYTIYNSTGIQIGAYNYMEIGGTSSSLLDSTNTNFKEEPAAKYQAIFDNTTSLTDKHLDPIRENLGKHWKNCARKLGFTQSQIDEIDHDYERDGLKEKVYQMLQKWVMREGIKGATVGKLAQALHQCSRIDLLSSLIYVSQN
modifications: here or on the partner: SiR-CA bound covalently to the Halo tag
Regarding B4, the binding entry with Flag-Halo-Parkin, O60260 is given as “binds”.

B5: ECI1 (enzyme, UniProt P42126 42-302)
chain: FGSQRVLVEPDAGAGVAVMKFKNPPVNSLSLEFLTELVISLEKLENDKSFRGVILTSDRPGVFSAGLDLTEMCGRSPAHYAGYWKAVQELWLRLYQSNLVLVSAINGACPAGGCLVALTCDYRILADNPRYCIGLNETQLGIIAPFWLKDTLENTIGHRAAERALQLGLLFPPAEALQVGIVDQVVPEEQVQSTALSAIAQWMAIPDHARQLTKAMMRKATASRLVTQRDADVQNFVSFISKDSIQKSLQMYLERLKEEKG
Regarding B5, in the experiment with Flag-Halo-Parkin, the binding entry is on record as “binds”.
